Source: patent US10538802B2, “Polypeptide substrate for the detection of von Williebrand factor cleaving protease ADAMTS13” (IMMUCOR GTI DIAGNOSTICS, INC., priority 2011, dated 2020)
“Also recorded” adds a separate entry of the source. Not every detail of the peptide structures is certain; ends, links or a residue may be inferred. No end group written: not given here.

Molecular target: T1, ADAMTS13 (Homo sapiens, UniProt Q76LX8)
T1 construct: tissue Gen-Probe GTI Diagnostics (ATS-13 kit calibrators, controls and proficiency samples); George King Biomedical Inc. (FACT, A-FACT, B-FACT plasmas) ATS-13; host or cells: plasma
T1 sequence (Q76LX8 75-1427): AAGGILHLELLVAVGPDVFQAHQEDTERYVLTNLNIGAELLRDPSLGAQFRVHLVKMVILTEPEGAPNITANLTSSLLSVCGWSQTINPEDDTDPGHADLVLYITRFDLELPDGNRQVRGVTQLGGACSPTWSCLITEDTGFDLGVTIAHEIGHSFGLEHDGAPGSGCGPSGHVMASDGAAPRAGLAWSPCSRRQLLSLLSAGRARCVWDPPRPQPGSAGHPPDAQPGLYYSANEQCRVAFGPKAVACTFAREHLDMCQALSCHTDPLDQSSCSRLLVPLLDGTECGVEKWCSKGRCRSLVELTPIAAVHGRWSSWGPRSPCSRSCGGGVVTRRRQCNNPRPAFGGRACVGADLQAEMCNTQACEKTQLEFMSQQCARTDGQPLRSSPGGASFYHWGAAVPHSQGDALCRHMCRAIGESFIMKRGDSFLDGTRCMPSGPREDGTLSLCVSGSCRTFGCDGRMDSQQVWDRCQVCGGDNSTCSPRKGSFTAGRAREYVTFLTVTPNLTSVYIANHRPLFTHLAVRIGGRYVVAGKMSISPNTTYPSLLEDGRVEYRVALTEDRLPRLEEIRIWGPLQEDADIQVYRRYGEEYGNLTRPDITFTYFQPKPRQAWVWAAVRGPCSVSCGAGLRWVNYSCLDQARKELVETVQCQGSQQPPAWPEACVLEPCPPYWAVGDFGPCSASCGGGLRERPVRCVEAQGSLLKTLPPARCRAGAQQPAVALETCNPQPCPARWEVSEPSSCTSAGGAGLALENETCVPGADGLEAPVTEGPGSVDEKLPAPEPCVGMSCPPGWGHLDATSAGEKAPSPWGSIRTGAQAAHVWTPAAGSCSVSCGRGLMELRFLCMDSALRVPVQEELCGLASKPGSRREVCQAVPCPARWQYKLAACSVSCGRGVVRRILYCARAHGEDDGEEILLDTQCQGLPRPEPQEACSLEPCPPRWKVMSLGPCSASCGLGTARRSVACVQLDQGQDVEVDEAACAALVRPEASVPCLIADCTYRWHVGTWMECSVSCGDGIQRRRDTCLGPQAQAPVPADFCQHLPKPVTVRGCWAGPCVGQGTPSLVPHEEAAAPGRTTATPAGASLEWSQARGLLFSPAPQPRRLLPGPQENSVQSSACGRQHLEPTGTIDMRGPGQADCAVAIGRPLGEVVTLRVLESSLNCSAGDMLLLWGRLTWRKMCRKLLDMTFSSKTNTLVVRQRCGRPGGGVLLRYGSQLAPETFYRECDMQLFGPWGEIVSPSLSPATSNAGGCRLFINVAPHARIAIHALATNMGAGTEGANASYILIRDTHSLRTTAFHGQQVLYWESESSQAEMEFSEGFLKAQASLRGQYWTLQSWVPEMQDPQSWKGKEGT
Assay: ADAMTS13 activity assay with fluorogenic (FRET) polypeptide substrate and diluted plasma samples
Type: biochemical
Details: for % Normal ADAMTS13 Activity: 30 Minute Incubation Time: Table 5
Description: The procedure in this example was performed substantially as described in Kokame, K., Y. Nobe, Y. Kokubo, A. Okayama, and T. Miyata. 2005. FRETS-VWF73, a first fluorogenic substrate for ADAMTS13 assay. Br. J. Haematol. 129:93-100, but using SEQ ID NO: 1 in place of the 73 amino acid substrate described therein. The FRETS-VWF73 substrate solution was dissolved in 25% dimethyl sulphoxide/water to prepare the 100 microM stock solution. The GTI FRET4 SEQ ID NO: 1 was dissolved in 100% DMSO. Both substrates were diluted to equal concentrations using ATS-13 substrate buffer (Gen-Probe GT1 Diagnostics, Inc., U.S.A., Cat#ATS-13).
Plasma samples were diluted according to the ATS-13 Direction Insert using ATS-13 specimen diluent (Gen-Probe GTI Diagnostics, Inc., U.S.A., Cat# ATS-13). The diluted plasma samples were mixed with the diluted substrate and the fluorescence was read at 0, 5, 10, 15, 20, 30, 45 minutes using a Biotek FLX800 at the appropriate excitation and emission wavelengths for each substrate.
The fluorophore-quencher pair in the SEQ ID NO: 1 polypeptide substrate is FAM-5/TQ 2^Tm (Ex 485±20; Em 528±20; AAT Bioquest, Inc. Sunnyvale, Calif. U.S.A.). The fluorophore and quencher pair of FRETS-VWF73 (Nma/Dnp) described in Kokame has been substituted with FAM-5 and TQ_2 respectively in GTI_FRET4 SEQ ID NO: 1. Furthermore, in the SEQ ID NO: 1 polypeptide the position of the fluorophore (FAM-5) and quencher (TQ_2) has been swapped relative to the position of the fluorophore and quencher of the FRETS-VWF73 construct. Therefore, for GTI_FRET4 SEQ ID NO: 1, attachment of the fluorophore (FAM-5) occurs by substituting asparagine with cystine at position 15. The quencher (TQ_2) was attached by substituting glutamine with lysine at position 4 (FIG. 2 and Table 4).
For this experiment, substrate concentration and fluorescence reader settings determined on the previous experiment are used. The specimens tested (listed in Table 3), include a panel of proficiency samples prepared for use with ATS-13 (Gen-Probe GTI Diagnostics, Inc., U.S.A., Cat# ATS-13) which included samples with normal or deficient ADAMTS13 activity levels. In addition, six Factor Assay ConTrol plasma were used (2 FACT, 2 A-FACT and 2 B-FACT, from George King Biomedical Inc., Kansas, USA). The assays for the SEQ ID NO: 1 substrate and for the prior art FRETS-VWF73 assay were performed generally as according to the procedure described in Example 1. Substrate is prepared according to the conditions used for initial testing of the substrate, which prepared the molar amount of SEQ ID NO: 1 polypeptide substrate used in the assay to be equivalent to the molar amount of FRETS-VWF73 used in the prior art. The […] assays were read at 0, 5, 10, 15, 20, 30, 45 minutes.
Testing of substrate for cleavability by ADAMTS13 is determined as is generally described in Example 1. […]

Sequence: DREKAPNLVYMVTGCPASDEIKRLPGDIIGWPNAPILIQDFETLPREAPDLVLQR [GTI_FRET5]
- time through which the calibration curve continued to be linear: ≤ 60 min
- trend line of the calibration curve: linear
- cleavage of the substrate (change in fluorescence with time) (FIG. 5, listed as SEQ ID NO: 7): cleavage of the SEQ ID NO: 7 polypeptide substrate occurs; also recorded: cleavage of the substrate occurs
- % Normal ADAMTS13 Activity: 30 Minute Incubation Time (sample 5 (ATS13-5)): 6 % Normal
- % Normal ADAMTS13 Activity: 30 Minute Incubation Time (sample 22 (ATS13-4)): 18 % Normal
- % Normal ADAMTS13 Activity: 30 Minute Incubation Time (sample 50 (ATS13-3)): 40 % Normal
- % Normal ADAMTS13 Activity: 30 Minute Incubation Time (sample 72 (ATS13-2)): 52 % Normal
- % Normal ADAMTS13 Activity: 30 Minute Incubation Time (sample 90 (ATS13-1)): 65 % Normal
- % Normal ADAMTS13 Activity: 30 Minute Incubation Time (sample A-FACT lot 900): <Calibrator A
- % Normal ADAMTS13 Activity: 30 Minute Incubation Time (sample A-FACT lot 1284): <Calibrator A
- % Normal ADAMTS13 Activity: 30 Minute Incubation Time (sample B-FACT lot 1114): 28 % Normal
- % Normal ADAMTS13 Activity: 30 Minute Incubation Time (sample B-FACT lot 1266): 23 % Normal
- % Normal ADAMTS13 Activity: 30 Minute Incubation Time (sample BCM2): 22 % Normal
- % Normal ADAMTS13 Activity: 30 Minute Incubation Time (sample BCM2 HI): 15 % Normal
- % Normal ADAMTS13 Activity: 30 Minute Incubation Time (sample BCM2 mixed): 37 % Normal
- % Normal ADAMTS13 Activity: 30 Minute Incubation Time (sample CNTL): <Calibrator A
- % Normal ADAMTS13 Activity: 30 Minute Incubation Time (sample CNTL HI): <Calibrator A
- % Normal ADAMTS13 Activity: 30 Minute Incubation Time (sample CNTL mixed): <Calibrator A
- % Normal ADAMTS13 Activity: 30 Minute Incubation Time (sample Calibrator A): 3 % Normal
- % Normal ADAMTS13 Activity: 30 Minute Incubation Time (sample Calibrator B): 8 % Normal
- % Normal ADAMTS13 Activity: 30 Minute Incubation Time (sample Calibrator C): 30 % Normal
- % Normal ADAMTS13 Activity: 30 Minute Incubation Time (sample Calibrator D): 64 % Normal
- % Normal ADAMTS13 Activity: 30 Minute Incubation Time (sample Calibrator E): 108 % Normal
- % Normal ADAMTS13 Activity: 30 Minute Incubation Time (sample FACT lot 222e1): 85 % Normal
- % Normal ADAMTS13 Activity: 30 Minute Incubation Time (sample FACT lot 1223): 82 % Normal
- % Normal ADAMTS13 Activity: 30 Minute Incubation Time (sample NPP032206): 84 % Normal
- % Normal ADAMTS13 Activity: 30 Minute Incubation Time (sample NPP032206 HI): 12 % Normal
- % Normal ADAMTS13 Activity: 30 Minute Incubation Time (sample NPP032206 at 37C): 77 % Normal
- % Normal ADAMTS13 Activity: 30 Minute Incubation Time (sample NPP032206 mixed): <Calibrator A
- % Normal ADAMTS13 Activity: 30 Minute Incubation Time (sample Positive Control High): 46 % Normal
- % Normal ADAMTS13 Activity: 30 Minute Incubation Time (sample Positive Control Low): 13 % Normal
- % Normal ADAMTS13 Activity: 30 Minute Incubation Time (sample UAMS041609): 14 % Normal
- % Normal ADAMTS13 Activity: 30 Minute Incubation Time (sample VF040901): 10 % Normal
